The results in this text go back to patent publication US20150086999A1.

For test [1], the target named is recombinant lipoprotein-associated phospholipase A2 (rLp-PLA2) expressed in HEK293 cells (UniProt Q13093). Description: EGS chemical cross-linking, SDS-PAGE and Western blot; self-association (the same experiment as told in the summary). Background: A western blot detects proteins with antibodies after separation by electrophoresis.
The target is the same in test [2]. Description: EGS chemical cross-linking, SDS-PAGE and Western blot; self-association.

No constants are given. Whether binding was seen depends on the method and setting. Some binding calls cover weakened binding; strength is not graded here.

B1: recombinant lipoprotein-associated phospholipase A2 (rLp-PLA2) expressed in HEK293 cells (enzyme, UniProt Q13093 22-441, looked up)
chain: FDWQYINPVAHMKSSAWVNKIQVLMAAASFGQTKIPRGNGPYSVGCTDLMFDHTNKGTFLRLYYPSQDNDRLDTLWIPNKEYFWGLSKFLGTHWLMGNILRLLFGSMTTPANWNSPLRPGEKYPLVVFSHGLGAFRTLYSAIGIDLASHGFIVAAVEHRDRSASATYYFKDQSAAEIGDKSWLYLRTLKQEEETHIRNEQVRQRAKECSQALSLILDIDHGKPVKNALDLKFDMEQLKDSIDREKIAVIGHSFGGATVIQTLSEDQRFRCGIALDAWMFPLGDEVYSRIPQPLFFINSEYFQYPANIIKMKKCYSPDKERKMITIRGSVHQNFADFTFATGKIIGHMLKLKGDIDSNVAIDLSNKASLAFLQKHLGLHKDFDQWDCLIEGDDENLIPGTNINTTNQHIMLQNSSGIEKYN
For the molecule B1, the binding entry in test [1] and in test [2] was “binds” in each case.
